In paper PMC3805573, “Methylglyoxal Evokes Pain by Stimulating TRPA1” (PLoS ONE, 2013) one finds single channel conductance data, which are given here for one compound.

The subject of this data set is TRPA1. Kind of data set: Excised inside-out patches, TRPA1 channel activity. Type of data set: cell-based. Particulars: TRPA1 channels activated by methylglyoxal, inside-out patch. The procedure:
DRG neurons and TRPA1 CHO cells were studied under voltage-clamp conditions using an Axopatch 200B amplifier and pClamp 10.0 software (Molecular Devices, Sunnyvale, CA). Except where stated otherwise, whole cell recordings were performed at a holding potential of –60 mV using an extracellular solution with the composition described above for [Ca^2+]i measurements. Borosilicate glass pipettes (2–5 MΩ, 75–80% series resistance compensation) were filled with (in mM) 140 KCl, 1 CaCl2, 2 MgATP, 10 EGTA, and 10 HEPES buffered to pH 7.4 (KOH). Excised inside-out patches were recorded using a Ca^2+-free solution containing (in mM) 140 NaCl, 5 KCl, 1 MgCl2, 10 HEPES and 1 EGTA, pH 7.4 (NaOH) in the pipettes and perfused with 140 KCl, 2 MgATP, 1 EGTA, and 10 HEPES (pH 7.4). DRG neurons were studied using an intracellular solution containing (in mM) 140 CsCl, 1 CaCl2, 2 MgATP, 10 EGTA and 10 HEPES, pH 7.4 (CsOH). Drugs were applied by local microperfusion with a rapid solution changer (RSC-200, Biologic, Claix, France).

Turning to `CC(=O)C=O` [MG, methylglyoxal], the single channel conductance (+60 mV) was determined as 120 pS, the single channel conductance (+100 mV) is on record as 150 pS and the single channel conductance (-20 to -60 mV) is 70-80 pS.
